Record: PubChem BioAssay AID1053208 (Peter MacCallum Cancer Centre, 2014)

Assay: 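Genes whose silencing cuts survival of bone tumour cells only with doxorubicin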 (primary screen)
System: mouse osteosarcoma cells, early-passage culture from an engineered mouse model of fibroblastic bone tumour
Knock-down reagent: siRNA pool against mouse genes, 40 nM
Time to read-out: about 120 h (48 h before drug, then 72 h with drug)
Treatment: doxorubicin 100 nM for 72 h, roughly 30-40% inhibitory dose
Read-out: 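Viability read as ATP luminescence after 72 h of 100 nM doxorubicin or none, duplicate wells averaged, scaled to non-targeting siRNA, then expressed as robust z-scores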
Direction: viability z-score with doxorubicin and doxorubicin viability vs non-targeting: higher = more viable cells under doxorubicin; viability z-score without drug: higher = more viable cells with knock-down alone; z-score of drug to no-drug ratio: higher = less drug sensitisation by knock-down
Rule for the call: 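a pool counts as active when its viability z-score with doxorubicin is -2 or below and its z-score without drug lies between -2 and 2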
Here is an unselected part of about 17,000 reagents. In the full data, 788 (4.7%) got an active call. 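Calls rest on z-score classes alone; an extra cut-off of viability at most 70% of control was not applied to them.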 No sequences are given here.

target,combined z-score class,viability z-score with doxorubicin,viability z-score without drug,z-score of drug to no-drug ratio,doxorubicin viability vs non-targeting,Outcome
Cdc16 (GeneID 69957),no change with or without drug,-1.24,-0.17,-1.12,0.83,inactive
Tfb1m (GeneID 224481),no change with or without drug,-0.45,-1.18,0.45,0.9,inactive
Il2ra (GeneID 16184),no change with or without drug,-0.79,-0.17,-0.56,0.87,inactive
Hbp1 (GeneID 73389),no change with or without drug,-0.67,-0.84,0,0.88,inactive
Chrng (GeneID 11449),no change with or without drug,-0.11,-0.17,0.11,0.93,inactive
9030612E09Rik (GeneID 74530),no change with or without drug,-1.35,-0.34,-1.12,0.82,inactive
Med11 (GeneID 66172),no change with or without drug,0.67,1.85,-0.45,1,inactive
Cd300lf (GeneID 246746),no change with or without drug,-0.22,-0.51,0.22,0.92,inactive
Irak1bp1 (GeneID 65099),no change with or without drug,0.22,-0.51,0.67,0.96,inactive
Ptgir (GeneID 19222),no change with or without drug,-0.67,-1.85,0.79,0.88,inactive
Lrrc46 (GeneID 69297),low cell count with doxorubicin only,-2.36,0.51,-2.7,0.73,active
Pcsk4 (GeneID 18551),low cell count with doxorubicin only,-2.02,-0.17,-1.91,0.76,active
Plag1 (GeneID 56711),high cell count with doxorubicin only,2.02,0.84,1.57,1.12,inactive
Myct1 (GeneID 68632),no change with or without drug,0.45,0.51,0.22,0.98,inactive
Zfand3 (GeneID 21769),no change with or without drug,0.67,0.84,0.22,1,inactive
Rpl7l1 (GeneID 66229),low cell count without drug only,-1.01,-3.2,1.57,0.85,inactive
Dusp7 (GeneID 235584),low cell count without drug only,0,-2.19,1.91,0.94,inactive
Cenph (GeneID 26886),low cell count with doxorubicin only,-2.02,-0.84,-1.57,0.76,active
Klk14 (GeneID 317653),no change with or without drug,0.67,1.18,0,1,inactive
Calhm6 (GeneID 215900),no change with or without drug,0.11,1.18,-0.56,0.95,inactive
Msh2 (GeneID 17685),no change with or without drug,0.45,-0.17,0.67,0.98,inactive
Glyr1 (GeneID 74022),no change with or without drug,0.11,0.67,-0.22,0.95,inactive
Add1 (GeneID 11518),no change with or without drug,1.46,1.69,0.45,1.07,inactive
Fbxw2 (GeneID 30050),no change with or without drug,0.67,1.18,0,1,inactive
Rpl39 (GeneID 67248),low cell count with and without drug,-3.37,-4.22,-0.79,0.64,inactive
Rasgrf1 (GeneID 19417),high cell count with and without drug,2.02,2.02,0.79,1.12,inactive
Tulp4 (GeneID 68842),no change with or without drug,0.34,-0.17,0.56,0.97,inactive
Fap (GeneID 14089),no change with or without drug,-0.45,-0.51,0,0.9,inactive
Ephb1 (GeneID 270190),no change with or without drug,0,-1.18,1.01,0.94,inactive
Gpr84 (GeneID 80910),low cell count with doxorubicin only,-2.02,0.17,-2.14,0.76,active
Aknad1 (GeneID 329738),no change with or without drug,0.11,1.85,-0.9,0.95,inactive
Nme1 (GeneID 18102),no change with or without drug,-0.11,0,0,0.93,inactive
Or51f1e (GeneID 259091),no change with or without drug,-0.45,-1.85,1.01,0.9,inactive
Rpl26 (GeneID 19941),low cell count with and without drug,-4.38,-2.19,-3.48,0.55,inactive
Creg2 (GeneID 263764),no change with or without drug,-0.45,0.51,-0.67,0.9,inactive
D830044D21Rik (GeneID 320621),no change with or without drug,-0.45,1.18,-1.12,0.9,inactive
Proz (GeneID 66901),no change with or without drug,0.67,-1.01,1.57,1,inactive
Or5p62 (GeneID 258489),no change with or without drug,-0.45,-1.18,0.45,0.9,inactive
Slc39a5 (GeneID 72002),no change with or without drug,-0.67,0.51,-0.9,0.88,inactive
Pwwp3a (GeneID 68114),low cell count with doxorubicin only,-2.7,0.17,-2.81,0.7,active
Or51k2 (GeneID 258351),no change with or without drug,-0.45,-0.51,0,0.9,inactive
Klk6 (GeneID 19144),no change with or without drug,-0.22,1.01,-0.79,0.92,inactive
Rnf125 (GeneID 67664),no change with or without drug,-0.11,0.67,-0.45,0.93,inactive
Dna2 (GeneID 327762),no change with or without drug,-0.9,-0.51,-0.56,0.86,inactive
Pgk1 (GeneID 18655),no change with or without drug,-0.45,-1.52,0.79,0.9,inactive
Or8g23 (GeneID 258431),no change with or without drug,-0.9,-0.51,-0.56,0.86,inactive
Atp5f1c (GeneID 11949),no change with or without drug,-0.45,-1.85,1.01,0.9,inactive
C230013L11Rik (GeneID 100504186),no change with or without drug,-0.56,-0.84,0.11,0.89,inactive
Or5p73 (GeneID 258304),no change with or without drug,-1.12,-0.67,-0.67,0.84,inactive
Glis3 (GeneID 226075),no change with or without drug,1.12,0.84,0.67,1.04,inactive
Or6b3 (GeneID 259041),no change with or without drug,-1.57,-1.35,-0.67,0.8,inactive
Slc25a11 (GeneID 67863),no change with or without drug,0.67,-0.34,1.12,1,inactive
Rnf111 (GeneID 93836),low cell count with doxorubicin only,-2.25,-0.34,-2.02,0.74,active
Or4k36 (GeneID 258910),low cell count with doxorubicin only,-2.7,-1.85,-1.69,0.7,active
Obox2 (GeneID 246792),no change with or without drug,0.79,1.01,0.22,1.01,inactive
Mknk1 (GeneID 17346),no change with or without drug,0.9,-1.35,2.14,1.02,inactive
Dock11 (GeneID 75974),no change with or without drug,-1.57,-0.17,-1.46,0.8,inactive
Ogdh (GeneID 18293),no change with or without drug,0.9,0.84,0.45,1.02,inactive
Rpl18 (GeneID 19899),no change with or without drug,-1.91,1.85,-2.81,0.77,inactive
Tnfaip8 (GeneID 106869),low cell count with doxorubicin only,-2.25,-1.35,-1.46,0.74,active
Adcy4 (GeneID 104110),no change with or without drug,0.22,0.67,-0.11,0.96,inactive
A730018C14Rik (GeneID 100504733),no change with or without drug,1.24,1.18,0.56,1.05,inactive
Tmed9 (GeneID 67511),no change with or without drug,0.45,0.67,0.11,0.98,inactive

10 entries already listed, arranged by “z-score of drug to no-drug ratio”, high to low.
target,combined z-score class,viability z-score with doxorubicin,viability z-score without drug,z-score of drug to no-drug ratio,doxorubicin viability vs non-targeting,Outcome
Rasgrf1 (GeneID 19417),high cell count with and without drug,2.02,2.02,0.79,1.12,inactive
Msh2 (GeneID 17685),no change with or without drug,0.45,-0.17,0.67,0.98,inactive
Tulp4 (GeneID 68842),no change with or without drug,0.34,-0.17,0.56,0.97,inactive
Add1 (GeneID 11518),no change with or without drug,1.46,1.69,0.45,1.07,inactive
Klk14 (GeneID 317653),no change with or without drug,0.67,1.18,0,1,inactive
Fbxw2 (GeneID 30050),no change with or without drug,0.67,1.18,0,1,inactive
Glyr1 (GeneID 74022),no change with or without drug,0.11,0.67,-0.22,0.95,inactive
Calhm6 (GeneID 215900),no change with or without drug,0.11,1.18,-0.56,0.95,inactive
Rpl39 (GeneID 67248),low cell count with and without drug,-3.37,-4.22,-0.79,0.64,inactive
Cenph (GeneID 26886),low cell count with doxorubicin only,-2.02,-0.84,-1.57,0.76,active
